PubChem BioAssay AID1259425 | University of Nebraska Medical Center – 2018

- Purpose: 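Seek colon cancer weak points whose silencing resembles KSR1 loss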 (primary screen)
- Cell system: HCT116 human colon cancer cells
- Reagent: siRNA pool against human genes, 50 nM siRNA
- Measured: 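mRNA of six signature genes measured together by branched-DNA assay after 50 nM siRNA pool, blank removed, divided by geometric mean of two housekeeping genes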
- Reading the numbers: BNIP3L mRNA: higher = more BNIP3L transcript after knockdown; NDRG1 mRNA: higher = more NDRG1 transcript after knockdown; BNIP3 mRNA: higher = more BNIP3 transcript after knockdown; ALDOC mRNA: higher = more ALDOC transcript after knockdown; ACSL5 mRNA: higher = more ACSL5 transcript after knockdown
In all, the deposit lists about 14,000 reagents; this is a random part of them. Not given: the time to read-out.

Target gene | BNIP3L mRNA, set 1 | NDRG1 mRNA, set 1 | BNIP3 mRNA, set 1 | ALDOC mRNA, set 1 | ACSL5 mRNA, set 1
MOB2 | 0.113 | 0.232 | 0.41 | 0.0839 | 0.223
POU2AF1 | 0.0916 | 0.522 | 0.47 | 0.0188 | 0.139
APOBEC3C | 0.149 | 0.106 | 0.204 | 0.0316 | 0.174
SLC25A3 | 0.118 | 0.151 | 0.237 | 0.037 | 0.107
STMN2 | 0.156 | 0.118 | 0.435 | 0.0173 | 0.0825
IFFO1 | 0.326 | 0.119 | 0.569 | 0.0543 | 0.226
NME7 | 0.155 | 0.256 | 0.432 | 0.0209 | 0.245
LANCL1 | 0.188 | 0.273 | 0.629 | 0.0394 | 0.151
COX7A2P2 | 0.114 | 0.193 | 0.315 | 0.0383 | 0.166
FAM186B | 0.101 | 0.359 | 0.226 | 0.0274 | 0.399
CRIM1 | 0.112 | 0.0651 | 0.359 | 0.0214 | 0.109
FAHD2B | 0.0583 | 0.0526 | 0.364 | 0.0071 | 0.111
SSC4D | 0.106 | 0.218 | 0.362 | 0.024 | 0.129
PHYHIP | 0.0949 | 0.154 | 0.327 | 0.0499 | 0.17
TGOLN2 | 0.12 | 0.276 | 0.284 | 0.0297 | 0.208
MRAS | 0.0945 | 0.182 | 0.274 | 0.0264 | 0.184
RPL18 | 0.262 | 0.283 | 0.618 | 0.0474 | 0.176
CFHR4 | 0.114 | 0.204 | 0.376 | 0.0312 | 0.2
LBP | 0.182 | 0.285 | 0.695 | 0.0263 | 0.292
RPS2 | 0.106 | 0.272 | 0.38 | 0.00696 | 0.11
NCOA4 | 0.0859 | 0.134 | 0.307 | 0.0173 | 0.273
SUGT1 | 0.107 | 0.506 | 0.562 | 0.0585 | 0.406
RNPS1 | 0.196 | 0.166 | 0.477 | 0.038 | 0.609
PHKA2 | 0.115 | 0.0354 | 0.31 | 0.00644 | 0.126
KIAA1755 | 0.11 | 0.0679 | 0.313 | 0.0291 | 0.078
PPP2R2A | 0.137 | 0.294 | 0.198 | 0.0364 | 0.236
HGD | 0.0617 | 0.219 | 0.25 | 0.0123 | 0.171
DHX30 | 0.105 | 0.256 | 0.356 | 0.0291 | 0.167
KCNA10 | 0.102 | 0.194 | 0.252 | 0.0179 | 0.22
KIF16B | 0.0545 | 0.0728 | 0.228 | 0.0204 | 0.249
VASP | 0.16 | 0.296 | 0.327 | 0.0343 | 0.181
ALG2 | 0.091 | 0.211 | 0.121 | 0.036 | 0.15
MMP15 | 0.155 | 0.842 | 0.326 | 0.0583 | 0.488
MYOG | 0.0859 | 0.0435 | 0.25 | 0.00363 | 0.0508
STMN3 | 0.0837 | 0.265 | 0.292 | 0.0338 | 0.101
PARS2 | 0.0584 | 0.154 | 0.41 | 0.025 | 0.0802
MID1 | 0.0501 | 0.184 | 0.241 | 0.0352 | 0.215
EPS8L3 | 0.163 | 0.2 | 0.313 | 0.0843 | 0.219
SLC7A7 | 0.0639 | 0.343 | 0.266 | 0.0115 | 0.184
FOXC1 | 0.089 | 0.175 | 0.198 | 0.000453 | 0.229
DUSP19 | 0.0647 | 0.07 | 0.194 | 0.0128 | 0.168
DIO1 | 0.24 | 0.748 | 0.391 | 0.0236 | 0.159
CHCHD7 | 0.2 | 0.45 | 0.32 | 0.0117 | 0.261
GJA1 | 0.117 | 0.133 | 0.275 | 0.0307 | 0.104
HFE | 0.156 | 0.0775 | 0.205 | 0.00919 | 0.088
OR5I1 | 0.101 | 0.553 | 0.2 | 0.0464 | 0.126
KLHL36 | 0.183 | 0.459 | 0.327 | 0.0217 | 0.233
PDGFD | 0.109 | 0.29 | 0.308 | 0.0188 | 0.207
TTLL4 | 0.117 | 0.384 | 0.237 | 0.0101 | 0.166
SLC25A31 | 0.269 | 0.286 | 0.325 | 0.157 | 0.415
PLPPR4 | 0.193 | 0.133 | 0.494 | 0.0593 | 0.184
FNDC3B | 0.606 | 1.19 | 0.973 | 0.178 | 0.229
VAX1 | 0.131 | 0.0382 | 0.279 | 0.0302 | 0.0913
DNM1L | 0.0577 | 0.162 | 0.391 | 0.0171 | 0.22
SCN5A | 0.0883 | 0.24 | 0.372 | 0.032 | 0.22
EEF1A2 | 0.115 | 0.0751 | 0.173 | 0.00689 | 0.182
HACL2 | 0.202 | 0.179 | 0.453 | 0.023 | 0.0977
OR1E2 | 0.201 | 0.152 | 0.256 | 0.0297 | 0.154
PCIF1 | 0.133 | 0.497 | 0.164 | 0.0136 | 0.264
NPIPA1 | 0.115 | 0.115 | 0.225 | 0.0233 | 0.1
CD163L1 | 0.0867 | 0.178 | 0.272 | 0.0308 | 0.129
MCCC2 | 0.0978 | 0.0912 | 0.23 | 0.0168 | 0.114
CLUH | 0.18 | 0.219 | 0.349 | 0.0305 | 0.196

Only “ACSL5 mRNA, set 1” (6 entries from above):
HFE	0.088
OR5I1	0.126
KLHL36	0.233
PDGFD	0.207
TTLL4	0.166
SLC25A31	0.415
